# Test results taken from patent US10745452B2, “Combination of antimicrobial peptides and antibiotic drugs for treating diseases” (OMNIX MEDICAL LTD., priority 2016, dated 2020).
# Entries after “also recorded” stand apart in the source; their conditions may differ. Read-outs that look alike come from different tables or passages of the source. At least one structure is not confirmed: it was looked up by name or label, or the drawing left a doubt. Some compounds share one wording; it may come from a single statement.
# Key:
# [1] = tested on: Salmonella serotype Typhimurium (ATCC 700408); assay type: cell-based; conditions: simultaneously, 17-20 h
# [2] = tested on: Salmonella serotype Typhimurium (ATCC 700408); assay type: cell-based; conditions: 17-20 h
# Protocol: FIG. 1 presents: Salmonella serotype Typhimurium (ATCC 700408), a Multi-Drug Resistant (MDR) strain of bacteria were cultured in the presence of either OMN6 or Kanamycin KAN. […] The bacteria were incubated for 17-20 hours and the growth of the bacteria was continuously monitored via spectrophotometry at 600 nm (OD600). As bacterial growth progresses, OD600 values rise, and where the growth is inhibited OD600 values remain constant.
# The bacteria were incubated for 17-20 hours and the growth of the bacteria was continuously monitored via spectrophotometry at 600 nm (OD600). As bacterial growth progresses, OD600 values rise, and where the growth is inhibited OD600 values remain constant.
# FIG. 3A presents: Salmonella serotype Typhimurium (ATCC 700408), a Multi-Drug Resistant (MDR) strain of bacteria were cultured in the presence of OMN6 or AMP.
smiles,measurement,setting,value
"C[C@@H](O)[C@H]1C(=O)N2C(C(=O)O)=C(SCCN=CN)C[C@H]12 [IPM, Imipenem]","bacterial growth (OD600), combination","[1]; OMN11 304 μg/ml together with IPM 32 μg/ml, FIG. 2",complete and long-lasting antimicrobial effect; also recorded: powerful antimicrobial effect
same,"bacterial growth (OD600), stand-alone treatment","[2]; IPM alone 32 μg/ml, FIG. 2",did not inhibit bacterial growth and did not lead to bacterial death; also recorded: did not inhibit bacterial growth effectively
"NC[C@H]1O[C@H](O[C@H]2[C@H](O)[C@@H](O[C@H]3O[C@H](CO)[C@@H](O)[C@H](N)[C@H]3O)[C@H](N)C[C@@H]2N)[C@H](O)[C@@H](O)[C@@H]1O [KAN, Kanamycin]","bacterial growth (OD600), stand-alone treatment","[2]; KAN alone 3.75 μg/ml, FIG. 1",did not inhibit bacterial growth and did not lead to bacterial death; also recorded: did not inhibit bacterial growth effectively
same,"bacterial growth (OD600), combination","[2]; OMN6 217 μg/ml together with KAN 3.75 μg/ml, simultaneously, FIG. 1",complete and long-lasting antimicrobial effect; also recorded: powerful antimicrobial effect
"CN(C)[C@@H]1C(O)=C(C(N)=O)C(=O)[C@@]2(O)C(O)=C3C(=O)c4c(O)cccc4[C@@](C)(O)[C@H]3C[C@@H]12 [TET, Tetracycline]","bacterial growth (OD600), combination","[1]; OMN6 32 μg/ml together with TET 16 μg/ml, FIG. 4",complete and long-lasting antimicrobial effect; also recorded: powerful antimicrobial effect
same,"bacterial growth (OD600), stand-alone treatment","[2]; TET alone 16 μg/ml, FIG. 4",did not inhibit bacterial growth and did not lead to bacterial death; also recorded: did not inhibit bacterial growth effectively
